{"source": "the supplement of paper PMC10735217", "test_system": "HEK293A TEAD-LUC reporter", "test": "TEAD-luciferase reporter activity (YAP activation), robust Z score vs plate; higher = stronger YAP/TEAD activation", "conditions": "24 h", "note": "This is one part of the list. Repeats in this data set agree poorly, so a single value says little.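 In a drug-repurposing library screen, luminescence reads luciferase driven by eight TEAD-binding elements, stably integrated into human kidney-derived cells. Compounds scoring over five robust Z scores above the plate mean are called hits.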", "data": [{"smiles": "CC(=O)O[C@H]1C[C@@H]2CC[C@@H]3[C@H](CC[C@@]4(C)[C@H]3C[C@H]([N+]3(C)CCCCC3)[C@@H]4OC(C)=O)[C@@]2(C)C[C@@H]1N1CCCCC1", "note": "[vecuronium bromide]", "values": [{"measurement": "TEAD-luciferase reporter activity", "setting": "compound concentration: 2 uM", "value": "inactive: -0.059"}]}, {"smiles": "CC(=O)O[C@H]1C[C@@H]2CC[C@@H]3[C@H](CC[C@@]4(C)[C@H]3C[C@H]([N+]3(C)CCCCC3)[C@@H]4OC(C)=O)[C@@]2(C)C[C@@H]1N1CCCCC1", "values": [{"measurement": "TEAD-luciferase reporter activity", "setting": "compound concentration: 200 nM", "value": "inactive: 0.715"}, {"measurement": "TEAD-luciferase reporter activity", "setting": "compound concentration: 10 uM", "value": "inactive: 2.3"}]}, {"smiles": "O=C1OC2(c3cc(I)c(O)c(I)c3Oc3c2cc(I)c(O)c3I)c2c(Cl)c(Cl)c(Cl)c(Cl)c21", "note": "[Provecta]", "values": [{"measurement": "TEAD-luciferase reporter activity", "setting": "compound concentration: 200 nM", "value": "inactive: -2.06"}, {"measurement": "TEAD-luciferase reporter activity", "setting": "compound concentration: 2 uM", "value": "inactive: -1.2"}, {"measurement": "TEAD-luciferase reporter activity", "setting": "compound concentration: 10 uM", "value": "inactive: 3.34"}]}, {"smiles": "CCOC(CN1C(=O)[C@](CC(=O)Nc2ccc(C)cc2)(NC(=O)Nc2ccc(C)cc2)c2ccccc21)OCC", "values": [{"measurement": "TEAD-luciferase reporter activity", "setting": "compound concentration: 200 nM", "value": "inactive: -0.473"}, {"measurement": "TEAD-luciferase reporter activity", "setting": "compound concentration: 2 uM", "value": "inactive: -0.205"}, {"measurement": "TEAD-luciferase reporter activity", "setting": "compound concentration: 10 uM", "value": "inactive: 0.577"}]}, {"smiles": "O=C(c1ccc2c(c1)OCO2)N1CCCCC1", "values": [{"measurement": "TEAD-luciferase reporter activity", "setting": "compound concentration: 200 nM", "value": "active: 5.27"}, {"measurement": "TEAD-luciferase reporter activity", "setting": "compound concentration: 2 uM", "value": "inactive: -0.46"}, {"measurement": "TEAD-luciferase reporter activity", "setting": "compound concentration: 10 uM", "value": "inactive: 0.793"}]}, {"smiles": "O=C1NCc2ccccc2CC12CCN(Cc1ccc(F)c(Cl)c1)C2", "note": "(centres undefined)", "values": [{"measurement": "TEAD-luciferase reporter activity", "setting": "compound concentration: 200 nM", "value": "inactive: 0.709"}, {"measurement": "TEAD-luciferase reporter activity", "setting": "compound concentration: 10 uM", "value": "inactive: 1.47"}]}, {"smiles": "Cc1cccc(O)c1", "values": [{"measurement": "TEAD-luciferase reporter activity", "setting": "compound concentration: 200 nM", "value": "inactive: -0.107"}, {"measurement": "TEAD-luciferase reporter activity", "setting": "compound concentration: 2 uM", "value": "inactive: 0.0884"}, {"measurement": "TEAD-luciferase reporter activity", "setting": "compound concentration: 10 uM", "value": "inactive: 0.703"}]}, {"smiles": "O=C1NCCCN1C1CCN(Cc2cccc3ccccc23)CC1", "values": [{"measurement": "TEAD-luciferase reporter activity", "setting": "compound concentration: 200 nM", "value": "inactive: -0.0378"}, {"measurement": "TEAD-luciferase reporter activity", "setting": "compound concentration: 10 uM", "value": "inactive: -0.683"}]}, {"smiles": "CCOC(=O)c1c(C(=O)Cc2c(CCN(C)C)cc3c(c2OC)OCO3)ccc(OC)c1OC", "values": [{"measurement": "TEAD-luciferase reporter activity", "setting": "compound concentration: 200 nM", "value": "inactive: -1.48"}, {"measurement": "TEAD-luciferase reporter activity", "setting": "compound concentration: 2 uM", "value": "inactive: -0.0859"}, {"measurement": "TEAD-luciferase reporter activity", "setting": "compound concentration: 10 uM", "value": "inactive: 0.481"}]}, {"smiles": "CC(=O)OCC(=O)[C@@]1(O)[C@H](C)C[C@H]2C3C[C@H](F)C4=CC(=O)C=CC4(C)C3[C@@H](O)CC21C", "note": "(some centres undefined)", "values": [{"measurement": "TEAD-luciferase reporter activity", "setting": "compound concentration: 200 nM", "value": "inactive: -0.193"}, {"measurement": "TEAD-luciferase reporter activity", "setting": "compound concentration: 2 uM", "value": "inactive: 0.575"}, {"measurement": "TEAD-luciferase reporter activity", "setting": "compound concentration: 10 uM", "value": "inactive: 0.578"}]}, {"smiles": "CN(CCOP(=O)(O)O)C(=N)N", "note": "[Creatinol phosphate]", "values": [{"measurement": "TEAD-luciferase reporter activity", "setting": "compound concentration: 200 nM", "value": "inactive: -0.486"}, {"measurement": "TEAD-luciferase reporter activity", "setting": "compound concentration: 10 uM", "value": "inactive: 0.676"}]}, {"smiles": "CN(C)CCCC(=O)N1CCC(n2c(=O)[nH]c3ccccc32)CC1", "values": [{"measurement": "TEAD-luciferase reporter activity", "setting": "compound concentration: 200 nM", "value": "inactive: 2.07"}, {"measurement": "TEAD-luciferase reporter activity", "setting": "compound concentration: 10 uM", "value": "inactive: 2.24"}]}, {"smiles": "CCCCC/C(=C\\C=C\\C(=O)N[C@H](C)CCCc1cccnc1)c1ccc(OC)cc1", "values": [{"measurement": "TEAD-luciferase reporter activity", "setting": "compound concentration: 200 nM", "value": "inactive: -0.587"}, {"measurement": "TEAD-luciferase reporter activity", "setting": "compound concentration: 2 uM", "value": "inactive: -0.341"}, {"measurement": "TEAD-luciferase reporter activity", "setting": "compound concentration: 10 uM", "value": "inactive: -0.745"}]}, {"smiles": "CCN(CC)CCNC(=O)c1c(C)[nH]c(/C=C2\\C(=O)Nc3ccc(-c4csc(-c5ccccc5)n4)cc32)c1C", "values": [{"measurement": "TEAD-luciferase reporter activity", "setting": "compound concentration: 200 nM", "value": "inactive: -0.22"}, {"measurement": "TEAD-luciferase reporter activity", "setting": "compound concentration: 2 uM", "value": "inactive: 2.08"}, {"measurement": "TEAD-luciferase reporter activity", "setting": "compound concentration: 10 uM", "value": "inactive: 1.23"}]}, {"smiles": "CCN(CC)CCCC(C)Nc1c2ccc(Cl)cc2nc2ccc(OC)cc12", "note": "(centres undefined)", "values": [{"measurement": "TEAD-luciferase reporter activity", "setting": "compound concentration: 200 nM", "value": "inactive: 1.16"}, {"measurement": "TEAD-luciferase reporter activity", "setting": "compound concentration: 10 uM", "value": "inactive: 2"}]}, {"smiles": "CCN(CC)CCCC(C)Nc1c2ccc(Cl)cc2nc2ccc(OC)cc12", "note": "(centres undefined) [quinacrine]", "values": [{"measurement": "TEAD-luciferase reporter activity", "setting": "compound concentration: 2 uM", "value": "inactive: 0.831"}]}, {"smiles": "CCCCCN(CCCOC)C(=O)C(CCC(=O)O)NC(=O)c1ccc(Cl)c(Cl)c1", "note": "(centres undefined) [Loxiglumide]", "values": [{"measurement": "TEAD-luciferase reporter activity", "setting": "compound concentration: 200 nM", "value": "inactive: -0.032"}, {"measurement": "TEAD-luciferase reporter activity", "setting": "compound concentration: 10 uM", "value": "inactive: -0.921"}]}, {"smiles": "CCCCCN(CCCOC)C(=O)C(CCC(=O)O)NC(=O)c1ccc(Cl)c(Cl)c1", "note": "(centres undefined) [loxiglumide]", "values": [{"measurement": "TEAD-luciferase reporter activity", "setting": "compound concentration: 2 uM", "value": "inactive: 0.857"}]}, {"smiles": "O=C(O)CCC(CP(=O)(O)Cc1c(F)c(F)c(F)c(F)c1F)C(=O)O", "note": "(centres undefined)", "values": [{"measurement": "TEAD-luciferase reporter activity", "setting": "compound concentration: 200 nM", "value": "inactive: -0.32"}, {"measurement": "TEAD-luciferase reporter activity", "setting": "compound concentration: 2 uM", "value": "inactive: -0.889"}, {"measurement": "TEAD-luciferase reporter activity", "setting": "compound concentration: 10 uM", "value": "inactive: 0.259"}]}, {"smiles": "CCCCC[C@H](O)CC[C@@H]1[C@H]2Cc3cccc(OCC(=O)O)c3C[C@H]2C[C@H]1O", "note": "[Trepostinil]", "values": [{"measurement": "TEAD-luciferase reporter activity", "setting": "compound concentration: 2 uM", "value": "inactive: -0.124"}]}, {"smiles": "CCCCC[C@H](O)CC[C@@H]1[C@H]2Cc3cccc(OCC(=O)O)c3C[C@H]2C[C@H]1O", "note": "[Treprostinil]", "values": [{"measurement": "TEAD-luciferase reporter activity", "setting": "compound concentration: 200 nM", "value": "inactive: -1.13"}, {"measurement": "TEAD-luciferase reporter activity", "setting": "compound concentration: 10 uM", "value": "inactive: 2.07"}]}, {"smiles": "OCc1cc([C@@H](O)CNCCCCCCOCCOCc2c(Cl)cccc2Cl)ccc1O", "note": "[vilanterol trifenatate]", "values": [{"measurement": "TEAD-luciferase reporter activity", "setting": "compound concentration: 200 nM", "value": "inactive: -0.269"}, {"measurement": "TEAD-luciferase reporter activity", "setting": "compound concentration: 2 uM", "value": "inactive: -0.276"}, {"measurement": "TEAD-luciferase reporter activity", "setting": "compound concentration: 10 uM", "value": "inactive: -1.06"}]}, {"smiles": "COc1ccc(/C=C/C(=O)O)cc1OC", "values": [{"measurement": "TEAD-luciferase reporter activity", "setting": "compound concentration: 200 nM", "value": "inactive: 0.0452"}, {"measurement": "TEAD-luciferase reporter activity", "setting": "compound concentration: 2 uM", "value": "inactive: -1.2"}, {"measurement": "TEAD-luciferase reporter activity", "setting": "compound concentration: 10 uM", "value": "inactive: -1.12"}]}, {"smiles": "CCN(CC)CC(O)CNC(=O)c1c(OC)c2ccccc2n1-c1ccccc1", "note": "(centres undefined)", "values": [{"measurement": "TEAD-luciferase reporter activity", "setting": "compound concentration: 200 nM", "value": "inactive: -1.22"}, {"measurement": "TEAD-luciferase reporter activity", "setting": "compound concentration: 2 uM", "value": "inactive: -1.35"}, {"measurement": "TEAD-luciferase reporter activity", "setting": "compound concentration: 10 uM", "value": "inactive: -1.04"}]}, {"smiles": "CN(C)c1nc(Cc2ccc(NC(=O)c3ccc4ccccc4c3)cc2)nc(Cl)c1CC(=O)O", "values": [{"measurement": "TEAD-luciferase reporter activity", "setting": "compound concentration: 200 nM", "value": "inactive: -1.18"}, {"measurement": "TEAD-luciferase reporter activity", "setting": "compound concentration: 2 uM", "value": "inactive: -0.634"}, {"measurement": "TEAD-luciferase reporter activity", "setting": "compound concentration: 10 uM", "value": "inactive: 2.15"}]}, {"smiles": "O=C(C[n+]1ccn(CC(OCc2ccc(Cl)cc2Cl)c2ccc(Cl)cc2Cl)c1)c1ccc(F)cc1", "note": "(centres undefined)", "values": [{"measurement": "TEAD-luciferase reporter activity", "setting": "compound concentration: 200 nM", "value": "inactive: -1.65"}, {"measurement": "TEAD-luciferase reporter activity", "setting": "compound concentration: 2 uM", "value": "inactive: -0.177"}, {"measurement": "TEAD-luciferase reporter activity", "setting": "compound concentration: 10 uM", "value": "inactive: -1"}]}, {"smiles": "CCn1c(=O)[nH]c2ccccc21", "values": [{"measurement": "TEAD-luciferase reporter activity", "setting": "compound concentration: 200 nM", "value": "inactive: 0.161"}, {"measurement": "TEAD-luciferase reporter activity", "setting": "compound concentration: 2 uM", "value": "inactive: -2.34"}, {"measurement": "TEAD-luciferase reporter activity", "setting": "compound concentration: 10 uM", "value": "inactive: -0.915"}]}, {"smiles": "C[C@@H]1C(=O)NC2=Nc3cccc(Cl)c3CN21", "note": "[Quazi]", "values": [{"measurement": "TEAD-luciferase reporter activity", "setting": "compound concentration: 200 nM", "value": "inactive: 0.249"}, {"measurement": "TEAD-luciferase reporter activity", "setting": "compound concentration: 10 uM", "value": "inactive: -0.384"}]}, {"smiles": "C[C@@H]1C(=O)NC2=Nc3cccc(Cl)c3CN21", "note": "[quazi]", "values": [{"measurement": "TEAD-luciferase reporter activity", "setting": "compound concentration: 2 uM", "value": "inactive: -1.15"}]}, {"smiles": "CCCCC(=O)O[C@]1(C(=O)CO)[C@@H](C)CC2C3CCC4=CC(=O)C=C[C@]4(C)[C@@]3(F)[C@@H](O)C[C@@]21C", "note": "(some centres undefined) [dexamethasone valerate]", "values": [{"measurement": "TEAD-luciferase reporter activity", "setting": "compound concentration: 200 nM", "value": "inactive: -0.342"}, {"measurement": "TEAD-luciferase reporter activity", "setting": "compound concentration: 2 uM", "value": "inactive: 0.614"}, {"measurement": "TEAD-luciferase reporter activity", "setting": "compound concentration: 10 uM", "value": "inactive: 1.97"}]}, {"smiles": "O=C(O)CCC(=O)C(=O)O", "note": "[2-Ketoglutaric acid]", "values": [{"measurement": "TEAD-luciferase reporter activity", "setting": "compound concentration: 200 nM", "value": "inactive: 1.11"}, {"measurement": "TEAD-luciferase reporter activity", "setting": "compound concentration: 2 uM", "value": "inactive: -1.28"}, {"measurement": "TEAD-luciferase reporter activity", "setting": "compound concentration: 10 uM", "value": "inactive: -1.36"}]}]}
